{"source": "patent US8853274B1", "about": "“Compositions and methods for targeting glioblastomas cells” (Vanderbilt University, priority 2011, dated 2014)", "key": {"T4302 CD133+ cells": {"test_system": "T4302 CD133+ cells", "assay": "Caspase 3/7 activation (apoptosis)", "type": "cell-based, human", "conditions": "absence of radiation; 100 nM; day 3", "experimental": "(A) T4302 CD133+ GBM stem cells were enriched from freshly collected subcutaneous xenograft tumors, cultured in stem cell media. Cells were left unirradiated or irradiated at 3 Gy. The relative mRNA levels of Hes2 were determined by quantitative real-time PCR at the time points as indicated. (B) T4302 CD133+ cells were pre-treated with vehicle (DMSO), 2 μM DAPT or 0.5 μM L685,458 for 4 hours and irradiated as indicated. Cells were then plated to form neurospheres. Fourteen days after plating, neurospheres containing more than 50 cells were scored. […] Relative caspase 3/7 activities were determined by normalizing caspase activities to the corresponding cell numbers. […] Relative caspase 3/7 activities and clonogenic survival were determined as described above. […] Clonogenic survival was determined as described above. *: p<0.05 by Student's t-test; #: p<0.01 by one-way ANOVA.\n(A, B) T4302 CD133+ cells were treated with 100 nM RO4929097 (GSI) and/or 100 nM tipifarnib (FTI) for 4 hours prior to 3 Gy radiation. (A) Cell growth on day 5 and (B) caspase 3/7 activation on day 3 were determined as described in FIG. 4. #: p<0.001 by one-way ANOVA, combo vs. single agents. […] Cell viability was determined at 5 days after treatment in comparison to vehicle-treated groups. […]"}, "HeLa": {"test_system": "HeLa", "assay": "Cell viability IC50 in HeLa", "type": "cell-based"}, "[1]": {"test_system": "intracranial T4302 tumors", "assay": "Orthotopic GBM model, survival and tumor burden", "type": "in vivo, Athymic nude mice", "experimental": "(A, B) T4302 CD133+ cells were treated with 100 nM GSI±FTI for 48 hours and lysed in RIPA buffer. Mice bearing intracranial T4302 tumors were orally treated with 30 mg/kg/day GSI once a day (q.d.)±100 mg/kg/day FTI twice a day (b.i.d.) for 7 days. Brains were resected and homogenized in RIPA buffer. All lysates were blotted with an antibody specific to prelamin A. (B) Additional brains were fixed and resected for IHC staining for cleaved Notch1. (C) T4302 CD133+ cells were infected with lentivirus expressing firefly luciferase and selected with puromycin for two days. Athymic nude mice were intracranially implanted with 5,000 cells, maintained for 10 days, and treated with GSI±FTI for 20 days as described above. In a separated experiment, animals were treated by the same protocol, except they were given 2 doses of 4 Gy X-ray irradiation on day 11 and day 12, 4 hours after drug administration. These mice were on drugs for 30 days. The median survival was calculated by the GraphPad Prism 5 software. […]\nMice were weighted and visually inspected daily once treatments begin. Tumor development was monitored by bioluminescence imaging every week. […] The primary readout of the in vivo tests is the median survival calculated by the Kaplan-Meier estimator using the GraphPad Prism5 software. Drug efficacy was also be assessed by tumor sizes estimated by bioluminescence imaging."}}, "note": "At least one compound was matched to its structure with a doubt left.", "data": [{"molecule": "Cn1cncc1[C@@](N)(c1ccc(Cl)cc1)c1ccc2c(c1)c(-c1cccc(Cl)c1)cc(=O)n2C", "note": "[tipifarnib]", "values": [{"measurement": "caspase 3/7 activation, in words", "setting": "T4302 CD133+ cells", "result": "without apparent activation of apoptosis"}, {"measurement": "IC50 in HeLa relative to IC50 in GSCs", "setting": "HeLa; HeLa vs GSCs", "result": "at least one magnitude higher"}, {"measurement": "half maximal inhibitory concentrations (IC50)", "setting": "HeLa; HeLa, data not shown", "result": "low μM range"}, {"measurement": "survival benefit, in words", "setting": "[1]; unirradiated, 20 days oral treatment", "result": "did not produce significant benefits"}, {"measurement": "survival benefit, in words", "setting": "[1]; with 2 doses of 4 Gy local X-ray, 30 days oral treatment", "result": "no significant effects"}]}]}
